# PMC5940405
# Chains of the proteins cited; added tags and fusions are not shown. Lines headed by an entry give the natural chain unless they say otherwise; changes in a name come on top. A line that says so, or that is headed by a name, gives the form on record, which may keep a tag or linker. Residues count along the entry.
# UniProt O43184: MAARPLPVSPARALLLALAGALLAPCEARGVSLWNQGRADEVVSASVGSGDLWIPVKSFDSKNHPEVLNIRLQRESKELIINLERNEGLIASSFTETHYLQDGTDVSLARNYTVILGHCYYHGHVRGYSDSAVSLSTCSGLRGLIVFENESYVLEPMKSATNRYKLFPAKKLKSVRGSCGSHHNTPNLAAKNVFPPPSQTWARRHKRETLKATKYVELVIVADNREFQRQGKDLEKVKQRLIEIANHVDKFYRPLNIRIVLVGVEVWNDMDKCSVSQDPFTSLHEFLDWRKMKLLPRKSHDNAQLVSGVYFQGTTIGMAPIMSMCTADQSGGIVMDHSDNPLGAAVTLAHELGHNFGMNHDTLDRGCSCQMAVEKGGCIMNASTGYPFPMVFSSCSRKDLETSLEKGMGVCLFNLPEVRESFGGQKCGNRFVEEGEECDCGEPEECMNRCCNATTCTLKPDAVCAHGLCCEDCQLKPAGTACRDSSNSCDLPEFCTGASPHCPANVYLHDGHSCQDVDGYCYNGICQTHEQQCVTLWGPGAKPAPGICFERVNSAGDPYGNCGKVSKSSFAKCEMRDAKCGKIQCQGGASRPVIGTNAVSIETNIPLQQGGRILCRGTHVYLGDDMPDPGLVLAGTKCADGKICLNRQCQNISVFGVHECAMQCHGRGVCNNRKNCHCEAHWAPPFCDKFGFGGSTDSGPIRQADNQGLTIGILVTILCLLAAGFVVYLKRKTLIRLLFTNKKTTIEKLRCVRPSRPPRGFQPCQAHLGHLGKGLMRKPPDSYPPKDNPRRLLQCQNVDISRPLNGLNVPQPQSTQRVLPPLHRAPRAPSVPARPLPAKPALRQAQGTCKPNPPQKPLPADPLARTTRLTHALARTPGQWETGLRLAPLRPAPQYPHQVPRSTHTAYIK
# UniProt Q13956: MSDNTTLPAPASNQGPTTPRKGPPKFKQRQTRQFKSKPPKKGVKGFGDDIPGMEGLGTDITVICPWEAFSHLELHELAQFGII
# UniProt O14578: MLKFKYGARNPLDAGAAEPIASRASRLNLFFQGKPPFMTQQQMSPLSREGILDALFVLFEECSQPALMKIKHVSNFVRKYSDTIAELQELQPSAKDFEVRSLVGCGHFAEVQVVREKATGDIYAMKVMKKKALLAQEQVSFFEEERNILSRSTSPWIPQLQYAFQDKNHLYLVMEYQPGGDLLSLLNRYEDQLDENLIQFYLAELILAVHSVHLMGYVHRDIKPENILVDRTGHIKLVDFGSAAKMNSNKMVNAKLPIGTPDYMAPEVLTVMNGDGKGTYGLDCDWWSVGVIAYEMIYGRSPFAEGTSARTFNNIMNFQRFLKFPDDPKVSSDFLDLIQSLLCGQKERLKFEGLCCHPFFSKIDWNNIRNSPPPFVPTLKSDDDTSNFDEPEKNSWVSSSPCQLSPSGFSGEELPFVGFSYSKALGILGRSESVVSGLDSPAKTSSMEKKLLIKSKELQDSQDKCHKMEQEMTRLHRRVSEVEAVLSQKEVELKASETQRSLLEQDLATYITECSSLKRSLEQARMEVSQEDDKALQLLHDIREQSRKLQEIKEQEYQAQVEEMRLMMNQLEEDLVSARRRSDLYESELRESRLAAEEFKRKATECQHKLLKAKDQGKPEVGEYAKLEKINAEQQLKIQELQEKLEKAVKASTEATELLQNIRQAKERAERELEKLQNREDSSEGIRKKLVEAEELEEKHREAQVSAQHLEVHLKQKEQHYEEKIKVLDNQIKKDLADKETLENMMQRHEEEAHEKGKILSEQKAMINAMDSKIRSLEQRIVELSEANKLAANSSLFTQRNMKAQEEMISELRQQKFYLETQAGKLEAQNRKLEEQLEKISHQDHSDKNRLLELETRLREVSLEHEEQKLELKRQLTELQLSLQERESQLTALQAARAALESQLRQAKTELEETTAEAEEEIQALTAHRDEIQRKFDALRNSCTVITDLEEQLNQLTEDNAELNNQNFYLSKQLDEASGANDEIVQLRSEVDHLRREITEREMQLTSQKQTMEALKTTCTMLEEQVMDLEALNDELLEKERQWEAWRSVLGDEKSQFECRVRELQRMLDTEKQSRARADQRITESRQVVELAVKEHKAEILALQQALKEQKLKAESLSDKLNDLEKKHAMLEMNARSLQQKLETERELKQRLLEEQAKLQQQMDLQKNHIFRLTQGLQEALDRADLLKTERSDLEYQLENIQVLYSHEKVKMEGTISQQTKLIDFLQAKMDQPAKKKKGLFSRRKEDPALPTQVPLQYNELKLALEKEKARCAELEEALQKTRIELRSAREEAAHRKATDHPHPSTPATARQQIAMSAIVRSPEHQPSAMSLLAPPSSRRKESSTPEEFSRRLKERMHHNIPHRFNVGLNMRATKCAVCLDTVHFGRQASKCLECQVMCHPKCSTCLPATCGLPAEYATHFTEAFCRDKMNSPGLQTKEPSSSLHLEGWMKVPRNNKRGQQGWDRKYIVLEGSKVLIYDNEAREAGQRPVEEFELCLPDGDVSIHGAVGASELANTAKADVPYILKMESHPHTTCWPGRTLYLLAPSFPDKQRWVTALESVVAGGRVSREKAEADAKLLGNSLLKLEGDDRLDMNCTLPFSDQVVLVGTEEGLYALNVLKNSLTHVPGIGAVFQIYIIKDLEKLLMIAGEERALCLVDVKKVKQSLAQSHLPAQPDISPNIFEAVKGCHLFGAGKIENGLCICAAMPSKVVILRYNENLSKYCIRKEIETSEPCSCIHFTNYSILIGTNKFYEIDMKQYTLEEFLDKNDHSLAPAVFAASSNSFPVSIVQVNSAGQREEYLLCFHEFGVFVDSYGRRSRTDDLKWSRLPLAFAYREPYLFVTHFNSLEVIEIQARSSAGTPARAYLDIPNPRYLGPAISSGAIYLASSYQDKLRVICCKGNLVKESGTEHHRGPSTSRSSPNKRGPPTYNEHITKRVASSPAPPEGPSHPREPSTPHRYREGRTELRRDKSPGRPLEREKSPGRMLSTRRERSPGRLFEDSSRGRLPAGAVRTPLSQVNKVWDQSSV
# Isoform USP25m of Ubiquitin carboxyl-terminal hydrolase 25 (Q9UHP3-3, form named): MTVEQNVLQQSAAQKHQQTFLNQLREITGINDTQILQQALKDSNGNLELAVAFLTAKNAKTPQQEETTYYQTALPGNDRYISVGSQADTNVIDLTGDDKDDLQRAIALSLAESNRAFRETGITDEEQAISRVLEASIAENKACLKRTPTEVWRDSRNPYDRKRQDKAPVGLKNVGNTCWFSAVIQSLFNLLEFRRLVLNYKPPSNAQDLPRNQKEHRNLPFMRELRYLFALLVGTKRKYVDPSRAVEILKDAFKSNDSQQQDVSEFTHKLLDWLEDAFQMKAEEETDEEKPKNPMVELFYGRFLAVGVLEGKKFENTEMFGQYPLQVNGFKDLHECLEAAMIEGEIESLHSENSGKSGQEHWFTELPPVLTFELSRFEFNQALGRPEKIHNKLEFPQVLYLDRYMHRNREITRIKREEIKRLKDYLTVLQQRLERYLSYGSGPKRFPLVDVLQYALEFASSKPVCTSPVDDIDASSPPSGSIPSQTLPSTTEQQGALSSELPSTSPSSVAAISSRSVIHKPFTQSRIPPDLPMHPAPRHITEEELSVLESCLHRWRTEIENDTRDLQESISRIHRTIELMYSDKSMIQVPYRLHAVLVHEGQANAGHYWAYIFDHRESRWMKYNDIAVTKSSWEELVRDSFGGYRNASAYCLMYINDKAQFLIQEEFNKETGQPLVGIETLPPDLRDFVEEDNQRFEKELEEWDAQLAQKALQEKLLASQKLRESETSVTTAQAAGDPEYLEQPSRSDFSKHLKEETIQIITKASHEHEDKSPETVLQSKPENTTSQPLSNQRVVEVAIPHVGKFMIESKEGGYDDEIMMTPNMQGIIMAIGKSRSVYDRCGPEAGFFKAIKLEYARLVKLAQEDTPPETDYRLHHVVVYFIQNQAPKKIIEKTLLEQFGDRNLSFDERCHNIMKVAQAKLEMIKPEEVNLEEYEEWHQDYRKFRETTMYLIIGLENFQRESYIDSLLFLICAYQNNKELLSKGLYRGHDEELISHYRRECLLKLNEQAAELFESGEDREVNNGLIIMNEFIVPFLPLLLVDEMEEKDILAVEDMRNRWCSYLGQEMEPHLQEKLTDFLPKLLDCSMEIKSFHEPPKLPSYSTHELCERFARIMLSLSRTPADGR
# UniProt Q5JRA6, residues 23-1907: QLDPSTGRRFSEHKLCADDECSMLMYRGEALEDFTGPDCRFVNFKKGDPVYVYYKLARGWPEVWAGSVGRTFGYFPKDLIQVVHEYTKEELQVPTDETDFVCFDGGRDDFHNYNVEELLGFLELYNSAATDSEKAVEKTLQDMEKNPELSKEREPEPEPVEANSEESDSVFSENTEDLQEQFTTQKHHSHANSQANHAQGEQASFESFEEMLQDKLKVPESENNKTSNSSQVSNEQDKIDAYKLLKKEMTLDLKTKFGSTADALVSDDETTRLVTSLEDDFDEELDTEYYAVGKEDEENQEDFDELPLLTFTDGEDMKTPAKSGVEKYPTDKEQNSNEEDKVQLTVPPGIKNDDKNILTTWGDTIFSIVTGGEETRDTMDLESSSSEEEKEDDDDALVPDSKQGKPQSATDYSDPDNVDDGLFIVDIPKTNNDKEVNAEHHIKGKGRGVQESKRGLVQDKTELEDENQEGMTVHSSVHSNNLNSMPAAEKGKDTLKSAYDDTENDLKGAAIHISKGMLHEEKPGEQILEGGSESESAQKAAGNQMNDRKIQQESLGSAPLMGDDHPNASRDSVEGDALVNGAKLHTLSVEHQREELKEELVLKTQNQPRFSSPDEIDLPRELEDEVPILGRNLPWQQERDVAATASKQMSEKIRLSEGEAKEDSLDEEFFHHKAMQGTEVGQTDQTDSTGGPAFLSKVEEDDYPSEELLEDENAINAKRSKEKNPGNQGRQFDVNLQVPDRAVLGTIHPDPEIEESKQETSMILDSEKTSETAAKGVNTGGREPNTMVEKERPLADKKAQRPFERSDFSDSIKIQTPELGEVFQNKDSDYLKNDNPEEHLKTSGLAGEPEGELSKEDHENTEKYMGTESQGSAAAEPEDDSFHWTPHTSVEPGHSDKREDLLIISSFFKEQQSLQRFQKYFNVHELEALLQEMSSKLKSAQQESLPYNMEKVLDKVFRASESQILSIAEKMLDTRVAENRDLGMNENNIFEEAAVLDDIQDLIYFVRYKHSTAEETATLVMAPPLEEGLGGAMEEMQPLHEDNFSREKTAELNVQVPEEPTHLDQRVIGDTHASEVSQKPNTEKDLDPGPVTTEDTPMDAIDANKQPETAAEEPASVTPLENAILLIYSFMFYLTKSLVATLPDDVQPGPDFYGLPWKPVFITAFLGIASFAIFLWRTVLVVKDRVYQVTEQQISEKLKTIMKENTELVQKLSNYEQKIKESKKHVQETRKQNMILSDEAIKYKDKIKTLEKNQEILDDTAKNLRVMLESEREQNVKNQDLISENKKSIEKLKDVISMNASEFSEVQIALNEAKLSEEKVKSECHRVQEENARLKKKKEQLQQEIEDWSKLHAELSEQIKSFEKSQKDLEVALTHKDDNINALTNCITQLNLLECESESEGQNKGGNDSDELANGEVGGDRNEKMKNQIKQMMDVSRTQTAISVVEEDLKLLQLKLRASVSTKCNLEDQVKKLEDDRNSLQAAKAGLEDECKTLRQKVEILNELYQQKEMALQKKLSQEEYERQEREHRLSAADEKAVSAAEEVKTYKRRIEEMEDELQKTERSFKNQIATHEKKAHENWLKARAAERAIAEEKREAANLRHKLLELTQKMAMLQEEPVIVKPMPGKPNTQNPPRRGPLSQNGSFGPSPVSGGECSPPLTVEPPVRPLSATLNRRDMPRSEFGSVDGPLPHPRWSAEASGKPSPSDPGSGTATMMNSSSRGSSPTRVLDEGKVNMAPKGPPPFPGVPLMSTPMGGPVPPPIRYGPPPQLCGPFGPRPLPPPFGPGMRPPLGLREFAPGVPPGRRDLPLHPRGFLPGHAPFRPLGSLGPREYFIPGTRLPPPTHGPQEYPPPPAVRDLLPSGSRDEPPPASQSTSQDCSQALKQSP
# B1: TBC1 domain family member 15 (protein, UniProt Q8TC07 1-691)
# chain: MAAAGVVSGKIIYEQEGVYIHSSCGKTNDQDGLISGILRVLEKDAEVIVDWRPLDDALDSSSILYARKDSSSVVEWTQAPKERGHRGSEHLNSYEAEWDMVNTVSFKRKPHTNGDAPSHRNGKSKWSFLFSLTDLKSIKQNKEGMGWSYLVFCLKDDVVLPALHFHQGDSKLLIESLEKYVVLCESPQDKRTLLVNCQNKSLSQSFENLLDEPAYGLIQAGLLDRRKLLWAIHHWKKIKKDPYTATMIGFSKVTNYIFDSLRGSDPSTHQRPPSEMADFLSDAIPGLKINQQEEPGFEVITRIDLGERPVVQRREPVSLEEWTKNIDSEGRILNVDNMKQMIFRGGLSHALRKQAWKFLLGYFPWDSTKEERTQLQKQKTDEYFRMKLQWKSISQEQEKRNSRLRDYRSLIEKDVNRTDRTNKFYEGQDNPGLILLHDILMTYCMYDFDLGYVQGMSDLLSPLLYVMENEVDAFWCFASYMDQMHQNFEEQMQGMKTQLIQLSTLLRLLDSGFCSYLESQDSGYLYFCFRWLLIRFKREFSFLDILRLWEVMWTELPCTNFHLLLCCAILESEKQQIMEKHYGFNEILKHINELSMKIDVEDILCKAEAISLQMVKCKELPQAVCEILGLQGSEVTTPDSDVGEDENVVMTPCPTSAFQSNALPTLSASGARNDSPTQIPVSSDVCRLTPA
# B2: peroxiredoxin 5 (protein, UniProt P30044 53-214)
# chain: MAPIKVGDAIPAVEVFEGEPGNKVNLAELFKGKKGVLFGVPGAFTPGCSKTHLPGFVEQAEALKAKGVQVVACLSVNDAFVTGEWGRAHKAEGKVRLLADPTGAFGKETDLLLDDSLVSIFGNRRLKRFSMVVQDGIVKALNVEPDGTGLTCSLAPNIISQL
# B3: pleckstrin homology domain containing A5 (protein, UniProt Q9HAU0 1-1116)
# chain: MAADLNLEWISLPRSWTYGITRGGRVFFINEEAKSTTWLHPVTGEAVVTGHRRQSTDLPTGWEEAYTFEGARYYINHNERKVTCKHPVTGQPSQDNCIFVVNEQTVATMTSEEKKERPISMINEASNYNVTSDYAVHPMSPVGRTSRASKKVHNFGKRSNSIKRNPNAPVVRRGWLYKQDSTGMKLWKKRWFVLSDLCLFYYRDEKEEGILGSILLPSFQIALLTSEDHINRKYAFKAAHPNMRTYYFCTDTGKEMELWMKAMLDAALVQTEPVKRVDKITSENAPTKETNNIPNHRVLIKPEIQNNQKNKEMSKIEEKKALEAEKYGFQKDGQDRPLTKINSVKLNSLPSEYESGSACPAQTVHYRPINLSSSENKIVNVSLADLRGGNRPNTGPLYTEADRVIQRTNSMQQLEQWIKIQKGRGHEEETRGVISYQTLPRNMPSHRAQIMARYPEGYRTLPRNSKTRPESICSVTPSTHDKTLGPGAEEKRRSMRDDTMWQLYEWQQRQFYNKQSTLPRHSTLSSPKTMVNISDQTMHSIPTSPSHGSIAAYQGYSPQRTYRSEVSSPIQRGDVTIDRRHRAHHPKHVYVPDRRSVPAGLTLQSVSPQSLQGKTLSQDEGRGTLYKYRPEEVDIDAKLSRLCEQDKVVHALEEKLQQLHKEKYTLEQALLSASQEIEMHADNPAAIQTVVLQRDDLQNGLLSTCRELSRATAELERAWREYDKLEYDVTVTRNQMQEQLDHLGEVQTESAGIQRAQIQKELWRIQDVMEGLSKHKQQRGTTEIGMIGSKPFSTVKYKNEGPDYRLYKSEPELTTVAEVDESNGEEKSEPVSEIETSVVKGSHFPVGVVPPRAKSPTPESSTIASYVTLRKTKKMMDLRTERPRSAVEQLCLAESTRPRMTVEEQMERIRRHQQACLREKKKGLNVIGASDQSPLQSPSNLRDNPFRTTQTRRRDDKELDTAIRENDVKPDHETPATEIVQLKETEPQNVDFSKELKKTENISYEMLFEPEPNGVNSVEMMDKERNKDKMPEDVTFSPQDETQTANHKPEEHPEENTKNSVDEQEETVISYESTPEVSRGNQTMAVKSLSPSPESSASPVPSTQPQLTEGSHFMCV
# Target: GFP-ADAM12L fusion protein (UniProt O43184)
# Test: affinity purification with mass spectrometry; anti-ADAM12L immunoprecipitates from extracts of ADAM12L-overexpressing MCF10A cells, rabbit IgG as control; SDS-PAGE, in-gel trypsin digestion, LC-MS/MS; proteins found only with ADAM12L, filtered with CRAPome
row,Molecule,binding
1,phosphodiesterase 6H (from UniProt Q13956 1-83),binds
2,"inositol 1,4,5-trisphosphate receptor type 3 (from UniProt Q14573 1-2671)",binds
3,citron rho-interacting serine/threonine kinase (from UniProt O14578 1-2027),binds
4,Isoform USP25m of Ubiquitin carboxyl-terminal hydrolase 25 (from UniProt Q9UHP3-3 1-1125),binds
5,Aminopeptidase B (from UniProt Q9H4A4 1-650),binds
6,"nuclear factor of activated T-cells 5, tonicity-responsive (from UniProt O94916 1-1531)",binds
7,"spectrin repeat containing, nuclear envelope 2 (from UniProt Q8WXH0 1-6885)",binds
8,dedicator of cytokinesis 10 (from UniProt Q96BY6 1-2186),binds
9,melanoma inhibitory activity family member 3 (from UniProt Q5JRA6 23-1907),binds
10,nucleoporin 205kDa (from UniProt Q92621 1-2012),binds
11,Isoform B of AP-2 complex subunit alpha-1 (from UniProt O95782-2 1-955),binds
12,AFG3 like matrix AAA peptidase subunit 2 (from UniProt Q9Y4W6 67-797),binds
13,B1,binds
14,B2,binds
15,B3,binds

# No constants are given. Whether binding was seen depends on the method and setting. Binding seen in cells or lysates may run through a third protein. These calls come from enrichment with a bait or labelling near it, and not all partners need be listed.
